According to paper PMC549217:
These are yes or no findings as the source states them, for the method shown. In cells and extracts the contact can be indirect. Some entries that bind do so weakly or less than the wild type.

Amino acid sequences for entries named in this document (tags omitted). A change or cut given only in a name is not applied to a line headed by its entry. Chains listed by the source or under a name are the forms on record and can include a tag or linker. Residues count along the entry.
UniProt P04608: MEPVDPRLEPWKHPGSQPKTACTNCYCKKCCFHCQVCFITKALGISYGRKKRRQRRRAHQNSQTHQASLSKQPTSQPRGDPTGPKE
GST-fused Tat 1–72: residues 1-72 of P04608
GST-Tat (1–48): residues 1-48 of P04608
GST-Tat (37–72): residues 37-72 of P04608

Assays:
[1] = biological target: T1, LIS1 (endogenous, HeLa) (human (endogenous in HeLa)) (UniProt P43034); experiment: co-IP; HeLa whole cell extract of Adeno-Tat infected cells; anti-LIS1 or anti-Flag antibodies, protein G-agarose, TNN buffer (50 mM Tris-HCl pH 7.5, 0.5% NP-40, 150 mM NaCl), 4°C, 2 h; immunoblot
T1 sequence: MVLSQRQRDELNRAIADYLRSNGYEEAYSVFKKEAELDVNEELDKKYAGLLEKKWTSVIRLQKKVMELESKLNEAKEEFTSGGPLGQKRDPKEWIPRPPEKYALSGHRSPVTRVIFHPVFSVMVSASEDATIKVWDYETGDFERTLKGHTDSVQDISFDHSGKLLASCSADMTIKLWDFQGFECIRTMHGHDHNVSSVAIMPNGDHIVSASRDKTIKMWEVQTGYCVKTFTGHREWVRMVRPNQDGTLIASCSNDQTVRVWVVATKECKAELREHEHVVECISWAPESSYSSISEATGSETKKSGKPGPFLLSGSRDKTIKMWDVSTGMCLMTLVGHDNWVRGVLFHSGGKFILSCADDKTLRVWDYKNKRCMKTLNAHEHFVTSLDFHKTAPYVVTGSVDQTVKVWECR

[2] = biological target: GST-Tat (37–72) (HIV-1) (UniProt P04608); experiment: pull-down; GST-fused Tat or GST alone immobilized on glutathione-agarose beads; [35S]methionine-labelled proteins in programmed reticulocyte lysates; 12% SDS-PAGE, autoradiogram; the lysate holds endogenous LIS1; only the target purified
[3] = biological target: GST-fused Tat 1–72 (HIV-1) (UniProt P04608); experiment: as above
[4] = biological target: GST-Tat (1–48) (HIV-1) (UniProt P04608); experiment: as above
[5] = biological target: Flag-tagged Tat (HIV-1) (UniProt P04608); experiment: co-IP; HeLa whole cell extract of Adeno-Tat infected cells; anti-LIS1 or anti-Flag antibodies, protein G-agarose, TNN buffer (50 mM Tris-HCl pH 7.5, 0.5% NP-40, 150 mM NaCl), 4°C, 2 h; immunoblot

Q: “Flag-tagged Tat (from UniProt P04608 1-86)” was tested. Which binding [1] did it give?
A: binds

B1: LIS1 (translated in reticulocyte lysate) (protein, UniProt P43034 1-410)
chain: T1 sequence
modifications: [35S]methionine label
Q: How did the binding [2] turn out when B1 was run?
A: binds

Q: And the binding [3]?
A: binds

Q: And the binding [4]?
A: binds

B2: LIS1 (endogenous, HeLa) (protein, UniProt P43034 1-410)
chain: T1 sequence
Q: B2 was tested. Which binding [5] did it give?
A: binds
